Read-outs that look alike come from different tables or passages of the source. Results are given in words; binding and its absence hold for the method and conditions named. Binding seen in cells or lysates may run through a third protein. Some entries that bind do so weakly or less than the wild type. For some of these results: Tags and fused reporters may be left off the sequences shown.

By UniProt entry, the sequences of proteins in these tests, tags left out. Residues count along the entry.
MBP-TET1 1-321 (Q3URK3, residues 1-321): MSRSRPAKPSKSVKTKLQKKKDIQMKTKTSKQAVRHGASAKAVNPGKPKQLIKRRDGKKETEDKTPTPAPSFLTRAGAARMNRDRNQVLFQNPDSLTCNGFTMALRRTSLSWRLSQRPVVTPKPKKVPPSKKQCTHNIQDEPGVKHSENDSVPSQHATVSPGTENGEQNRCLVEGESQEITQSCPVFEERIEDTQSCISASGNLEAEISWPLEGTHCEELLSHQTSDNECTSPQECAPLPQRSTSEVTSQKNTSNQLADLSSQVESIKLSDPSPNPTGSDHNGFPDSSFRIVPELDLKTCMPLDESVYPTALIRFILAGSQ
MBP-TET1 1-215 (Q3URK3, residues 1-215): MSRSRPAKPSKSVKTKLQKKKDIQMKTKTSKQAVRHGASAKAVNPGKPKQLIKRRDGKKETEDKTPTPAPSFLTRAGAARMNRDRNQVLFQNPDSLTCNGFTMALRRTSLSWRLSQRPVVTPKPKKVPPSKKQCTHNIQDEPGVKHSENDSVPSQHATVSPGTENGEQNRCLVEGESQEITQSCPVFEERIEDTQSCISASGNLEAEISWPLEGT
MBP-TET1 1-165 (Q3URK3, residues 1-165): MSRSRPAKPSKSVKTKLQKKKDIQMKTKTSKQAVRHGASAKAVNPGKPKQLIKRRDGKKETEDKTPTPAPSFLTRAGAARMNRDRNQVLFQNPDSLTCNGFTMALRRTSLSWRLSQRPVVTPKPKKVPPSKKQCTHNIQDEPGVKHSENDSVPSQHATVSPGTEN
MBP-TET1 1-120 (Q3URK3, residues 1-120): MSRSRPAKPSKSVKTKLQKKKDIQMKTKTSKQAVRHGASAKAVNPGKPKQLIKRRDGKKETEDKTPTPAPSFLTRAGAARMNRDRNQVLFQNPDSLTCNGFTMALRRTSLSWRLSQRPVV

Among the data in publication doi:10.1101/2020.06.29.177584 are binding values, retold here.

Some targets named below: MBP-TET1 1-215 (mouse) (UniProt Q3URK3); MBP-TET1 1-120 (mouse) (UniProt Q3URK3); MBP-TET1 1-165 (mouse) (UniProt Q3URK3).
What all share (assay): pull-down
Test [1] has as its target MBP-TET1 1-321 (mouse) (UniProt Q3URK3).
The target is the same in test [2]. This is another data set of the same source.

With “His-NANOG 194-305 (from UniProt Q80Z64 194-305) (domain or fragment)”, in the test with MBP-TET1 1-321 (mouse) [1], the binding result was “binds”.

As for “His-NANOG 91-246 (from UniProt Q80Z64 91-246) (domain or fragment)”, the binding entry in the test with MBP-TET1 1-321 (mouse) [1] is listed as “binds”. With “His-NANOG 1-160 (from UniProt Q80Z64 1-160) (domain or fragment)”, the binding entry with MBP-TET1 1-321 (mouse) [1] was “binds”.

B1: His-NANOG (protein, UniProt Q80Z64 1-305)
chain: MSVGLPGPHSLPSSEEASNSGNASSMPAVFHPENYSCLQGSATEMLCTEAASPRPSSEDLPLQGSPDSSTSPKQKLSSPEADKGPEEEENKVLARKQKMRTVFSQAQLCALKDRFQKQKYLSLQQMQELSSILNLSYKQVKTWFQNQRMKCKRWQKNQWLKTSNGLIQKGSAPVEYPSIHCSYPQGYLVNASGSLSMWGSQTWTNPTWSSQTWTNPTWNNQTWTNPTWSSQAWTAQSWNGQPWNAAPLHNFGEDFLQPYVQLQQNFSASDLEVNLEATRESHAHFSTPQALELFLNYSVTPPGEI
Consider B1, for which the binding entry in the test with MBP-TET1 1-215 (mouse), in the test with MBP-TET1 1-321 (mouse) [2], in the test with MBP-TET1 1-120 (mouse) and in the test with MBP-TET1 1-165 (mouse) was “binds” throughout.
